Results deposited as PubChem BioAssay AID1671195 (Yale University, 2021)
This is one part, drawn at random, of about 22,000 deposited reagents. Of all reagents, about 1,510 (6.9%) are marked active. 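Active includes knockdowns raising or lowering LDL uptake; positive z-scores mean more uptake, negative mean less.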 No sequences are given here.

- Screen: 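Knockdowns that increase or decrease uptake of fluorescent LDL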 (primary screen)
- System: human Huh7 hepatoma cells
- Reagent: siRNA pool against human genes, 18 nM
- Time to read-out: about 2 to 2.5 days of knockdown, then 8 h LDL uptake
- Treatment: DiI-labelled LDL at 30 µg/ml for 8 h, in lipoprotein-deficient serum medium
- Read-out: 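Per-cell DiI-LDL intensity by automated imaging; well means scaled to the plate median and given as a robust z-score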
- Reading the numbers: robust z-score: higher = more LDL uptake after knockdown
- Active means: 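a gene counts as active if at least two replicate z-scores exceed ±2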

target	PubChem SID	robust z-score, replicate 1	robust z-score, replicate 2	robust z-score, replicate 3	outcome
GNAT2	SID442883378	2.64	3.58	3.04	active
SLC24A3	SID442899000	-0.308	-0.893	-0.494	inactive
TYW3	SID442900808	-0.989	-0.888	-0.554	inactive
FAM111B	SID442889395	0.36	0.965	0.374	inactive
SAMSN1	SID442886434	1.64	1.54	0.301	inactive
SAMSN1	SID442899434	-0.823	-0.735	-0.303	inactive
DEGS2	SID442898453	-1.08	-0.122	-0.299	inactive
XKR6	SID442883655	2.71	2.54	2.25	active
KREMEN2	SID442901528	-1.47	-0.777	-0.493	inactive
MOXD1	SID442894322	-0.211	0.19	-0.13	inactive
TMEM242	SID442904364	-1.12	-2.08	-1.6	inactive
SRRM3	SID442890129	0.188	0.768	0.424	inactive
LOC107984784	SID442884165	1.3	2.04	2.2	active
S100A10	SID442904510	-1.66	-1.52	-1.86	inactive
KIAA0825	SID442897277	-0.149	-0.808	-0.145	inactive
CEACAM16	SID442883417	2.9	3.13	2.85	active
JAKMIP2	SID442892532	-0.276	0.778	-0.0345	inactive
DNAJC5	SID442899013	-0.469	-0.496	-0.734	inactive
DIMT1	SID442895100	-0.0523	0.00514	-0.353	inactive
CENPW	SID442900040	-0.99	-0.636	-0.483	inactive
LGR6	SID442898354	-0.958	-0.634	0.125	inactive
PPIL3	SID442884500	-2.2	-2.43	-2.1	active
MCMBP	SID442897460	0.0274	-0.591	-0.601	inactive
LOC388214 (retired record)	SID442891991	0.346	0.0952	0.224	inactive
ZNF804B	SID442889107	0.96	0.446	0.43	inactive
TYROBP	SID442891206	1.24	0.259	-0.545	inactive
FOXJ1	SID442884510	-2.23	-2.33	-2.23	active
NR1H2	SID442895108	-0.71	0.552	-0.245	inactive
MS4A1	SID442895705	-0.404	0.253	-0.442	inactive
MLXIPL	SID442886610	0.92	1.51	0.894	inactive
ELL2	SID442899440	-0.711	-0.814	-0.337	inactive
TCF19	SID442887368	1.12	0.972	0.695	inactive
FKBP6	SID442896796	-0.23	-0.467	-0.244	inactive
RRP12	SID442894823	-0.334	-0.32	0.342	inactive
PPM1J	SID442892779	0.193	-0.0232	0.204	inactive
ABCB9	SID442897765	-0.209	-0.191	-0.867	inactive
UFD1P1	SID442886327	1.02	1.12	1.44	inactive
C16orf89	SID442892104	0.611	0.146	-0.133	inactive
STX11	SID442897324	-0.354	-0.151	-0.614	inactive
LOC401553 (retired record)	SID442899848	-0.718	-0.884	-0.429	inactive
MEPCE	SID442883153	4.65	3.88	4.76	active
LINC02912	SID442904664	-1.67	-1.94	-1.75	inactive
MTURN	SID442899425	-0.67	-0.736	-0.452	inactive
SLC45A2	SID442891234	0.191	-0.519	1.27	inactive
CCDC107	SID442902758	-0.935	-1.33	-1.17	inactive
KRTAP21-2	SID442899571	-0.645	-0.805	-0.466	inactive
PCCA	SID442901681	-1.66	-0.749	-0.402	inactive
DAPK2	SID442897345	-0.15	-0.711	-0.267	inactive
CRAMP1	SID442902362	-0.416	-1.33	-1.43	inactive
MBD6	SID442888405	1.69	0.386	0.0994	inactive
KLRB1	SID442899429	-0.449	-0.127	-1.28	inactive
HSP90AA3P	SID442898213	-0.524	-0.185	-0.711	inactive
ZNF503-AS2	SID442886542	0.996	1.29	1.1	inactive
PSMB2	SID442887130	1.24	0.427	1.27	inactive
WDR73	SID442889047	1.04	0.309	0.515	inactive
TGOLN2	SID442894335	0.33	-1.3	0.815	inactive
LSM2	SID442888551	0.555	0.868	0.677	inactive
COL6A3	SID442904256	-1.69	-1.59	-1.36	inactive
GOLGA2P7	SID442889218	0.489	0.374	0.918	inactive
LOC200731 (retired record)	SID442894827	0.0248	0.0541	-0.392	inactive
HNRNPH2	SID442883915	2.17	1.93	2.36	active
TRIM49	SID442893766	-1.19	0.332	0.892	inactive
PCDHA11	SID442885932	1.41	1.52	1.03	inactive
FGF2	SID442883515	3.26	3.09	1.91	active
GGTLC1	SID442889602	0.38	-0.108	1.33	inactive
LDB2	SID442892504	1.16	-0.397	-0.289	inactive
SLC38A2	SID442888549	0.706	1.6	-0.209	inactive
CCDC125	SID442886468	0.836	1.25	1.37	inactive
TAFA5	SID442887441	1.18	-0.293	1.85	inactive
GCLC	SID442887455	-0.0305	1.35	1.41	inactive
NAGA	SID442897915	-2.15	0.331	0.5	inactive
OR6C65	SID442904579	-1.25	-1.79	-2.14	inactive
SPNS1	SID442897632	-0.79	-0.0118	-0.417	inactive
CHCHD2	SID442892050	0.595	-0.207	0.256	inactive
EFNB3	SID442888327	0.294	1.72	0.214	inactive
KLHL2	SID442901803	-0.271	-1.67	-0.947	inactive
KRTAP3-3	SID442889829	0.752	0.323	0.436	inactive
SLC43A1	SID442897526	-0.538	-0.249	-0.401	inactive
LOC389801 (retired record)	SID442886050	1.35	1.92	0.583	inactive
PFKL	SID442899267	-0.666	-0.931	-0.2	inactive
PRSS54	SID442904121	-1.32	-1.55	-1.64	inactive
UBQLN1	SID442884209	0.645	2.3	2.12	active
OR2J4P	SID442897555	-0.425	-0.621	-0.15	inactive
BATF3	SID442898455	-1.45	0.00467	-0.0583	inactive
WDR77	SID442889379	0.762	0.595	0.35	inactive
UPF3A	SID442888016	1.23	0.566	0.589	inactive
LINC01235	SID442887939	0.817	0.636	0.985	inactive

Targets listed so far whose gene name starts with O or o (2):
target	PubChem SID	robust z-score, replicate 1	robust z-score, replicate 2	robust z-score, replicate 3	outcome
OR6C65	SID442904579	-1.25	-1.79	-2.14	inactive
OR2J4P	SID442897555	-0.425	-0.621	-0.15	inactive
